In PubChem BioAssay AID1508600 (Functional Genomics Laboratory (NCATS/FGL), 2020):
Among all 53,000 sequences or so, about 3,700 (7%) were called active.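 The calls were made as follows: active = gene knockdowns whose robust z-score for IL-1 alpha signal is at least 2 or at most -2, so actives lie on both sides; inactive = the rest.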 The list shows a part of the results.

Assay: Components of the Cytosolic LPS Sensing Pathway: Gene Identification via Genome-wide siRNA Screen;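 also: robust z of the log signal after scaling to non-targeting control siRNA wells of the plate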
Details: RAW264.7 macrophages, IL-1a HTRF, actives lie on both sides, screened at 100 nM (by protocol), cells primed 5 h with Pam3CSK4 first
Summary of the method: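 Knockdown: 100 nM siRNA, 48h, RAW264.7. Stimulation: Pam3CSK4 5 h, then LipidA via TransIT-TKO 24 h. Output: supernatant IL-1a HTRF, negative-control-normalized, log robust z-score; viability by CellTiter-Glo.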
In the case of CGUAGCAAUCAACAAUAUCTT against Pcdhb17, the z-score is reported as inactive: 0.762. With GCUAUUCACUUGAUUCAUGTT against Sdad1 the z-score was inactive: 0.318. For GCAAUGUGGAAAGUGUAAATT against Washc1, the z-score was inactive: -1.38. In the case of GGCAAAUGUGUUAUGUUUUTT against Rnf11, the z-score is reported as inactive: -0.269. In the case of GCACUGACAUCAAAAAUACTT against Ddx31, the z-score is reported as inactive: -0.131. In the case of GGCUUGACUUCUCCAAACATT against Ep300, the z-score is reported as inactive: -1.68. For GGCACAUCACUGCUUACCUTT against Rce1, the z-score was inactive: -1.73. In the case of GGACUUGCUUUCUGAGAACTT against Zfp319, the z-score is reported as inactive: 0.16. In the case of GGAACAUGACUUUCUCUGUTT against Tmem161a, the z-score is reported as inactive: 0.0961. In the case of GCCUUCCAUACAUUUAACATT against Olfr311, the z-score is reported as inactive: -1.01. In the case of GGCGAAUGCGCUUCUGAUATT against BC053393, the z-score is reported as active: 2.29. With GGCCAUGUUGAGUAAGAAATT against Mmrn2 the z-score was inactive: 0.617. In the case of GGAUUUAUUUCCGAUUCGATT against Nalcn, the z-score is reported as inactive: -0.0152. For GGUCUUAUCUUGAUUGAGGTT against Gpr180, the z-score was inactive: -0.563. In the case of GCUAGGAGACCUCUUCAUGTT against Mkrn2, the z-score is reported as inactive: 0.969. In the case of CGCUUAAAACAUUUGGUUATT against Rnf170, the z-score is reported as inactive: 0.489. For GGGAUCAAAGCUUUUUUAGTT against Mad2l1, the z-score was inactive: 0.28. For GCGAGAAUUGGACAAAUUATT against Acot12, the z-score was inactive: 0.784. With GCAUCGUGCAGAAUUUUGCTT against Ephb1 the z-score was inactive: -1.04. With GGGAUUUUGAGUUUGAUGCTT against Zc3h10 the z-score was inactive: -1.03. With GGAUGCAAGCAAAAUGCAGTT against Gpm6b the z-score was inactive: 0.839. With GGAACAAUUGGUUUGUUAATT against Ms4a6b the z-score was inactive: 0.212. With GGAGAGUGUCCUUUCAAAUTT against Zfp944 the z-score was inactive: 0.819. In the case of GGAGAAAAAUGAAAGAUCUTT against Grb14, the z-score is reported as inactive: 0.548. For CGAAGGGAUUGAUUUGACUTT against Kars, the z-score was inactive: -0.324. In the case of GGUGAUAAGAUACAUAUCATT against Usp9x, the z-score is reported as inactive: -1.61. With GGUCCUCAAGAUCUUUGUGTT against Extl1 the z-score was inactive: 0.0445. In the case of GGAGACUGUGAUUGAGAUGTT against Rnf181, the z-score is reported as inactive: -0.401. In the case of CCUGUGCCUCGUUUUAUUUTT against Fam161a, the z-score is reported as inactive: 0.807. In the case of GGAGUAGAAUGUAUUCAGATT against Ccng1, the z-score is reported as inactive: -0.948. With GCAUCUAUACACCGUCAGCTT against Zfp341 the z-score was inactive: 0.0353. For GGCCUCGUCAUUUUACAGGTT against Mcee, the z-score was inactive: 0.098. With CCUUAGGUCUAAGUAAUCUTT against Dnase1l1 the z-score was active: 2.3. For CGCAAUAGUCUUAAACCCUTT against Lpxn, the z-score was inactive: 0.532. In the case of GCUCUUCCGCACUUUCAUUTT against H2al1m, the z-score is reported as inactive: 1.37. In the case of GCAACUGAGUCGUAAGUUCTT against Tbc1d12, the z-score is reported as inactive: 0.597. With CCUUCCUGUCCAUGUACCUTT against Olfr412 the z-score was inactive: 0.879. With GGCAUUCCCAUCAAGAGCATT against Dynlrb1 the z-score was inactive: 0.387. With GGGAUACUUGCUCAAUGAGTT against Irf1 the z-score was inactive: -1.3. In the case of GGAGUUUUAACAACAGUAGTT against Clca2, the z-score is reported as inactive: -0.228. With GCUAUGGGUAAACUUUUUGTT against Olfr354 the z-score was inactive: 0.905. With GGAACACAAGCAACAACCATT against Nutm1 the z-score was inactive: -1.21. For GGAACUCUCAAGAGAGAAUTT against Dnajc14, the z-score was inactive: 0.233. In the case of CCUUGGUUUGCACACUCAGTT against Batf3, the z-score is reported as inactive: -0.155. With GGAUGCUUUACCAAAUGAATT against Slc44a3 the z-score was inactive: 0.147. With GGCGGUUUAUGGUAUAAACTT against Fam72a the z-score was inactive: 0.723. For GGGAAAGGACAUUACCCAGTT against Stox2, the z-score was inactive: -0.22. For GAGCUUGUUCACAUGUUUCTT against Tnfsf12, the z-score was inactive: 0.15. With GCCUCUUGAUGUUAAAGUATT against Krt2 the z-score was inactive: 0.732. In the case of GGAAGUCAUUGCUGUCGUCTT against Mov10l1, the z-score is reported as inactive: -1.12. In the case of GGAAGUUGACACCAAAACCTT against Magel2, the z-score is reported as inactive: -0.295. With GGAUUCCCUGUAUGCCCAATT against Rpl36al the z-score was inactive: -0.23. In the case of CCAUUUGACAAGACUGCCATT against Ppp6r1, the z-score is reported as inactive: 0.921. With GCACCAAUUCCCUAACUGGTT against Fam102a the z-score was inactive: 0.244. In the case of CCCAGCUUAUACUCUUAAGTT against Fez1, the z-score is reported as inactive: 0.344. With GGCUCAGCACAAUGACUCUTT against Grem1 the z-score was inactive: 1.49. With GGGUGUAUUCUGCUUUGUATT against Otud6b the z-score was inactive: 0.845. In the case of GCUCUUGGUGGAUCAUCAATT against Foxo3, the z-score is reported as inactive: -1.35. In the case of GGCUAUUUGUUACACCGUCTT against Sharpin, the z-score is reported as inactive: -0.391. With CCGUAUAAACAUUUAUGAGTT against Bmp4 the z-score was inactive: -0.295. With GGUGGAAGUUUGAUUGGUGTT against Ap3s2 the z-score was inactive: -0.992. With GGGCAUUGGGAUCCUCAAUTT against Olfr139 the z-score was inactive: -0.734. For UUGUAGAAGCAUUCUUAUCTT against Olfr668, the z-score was inactive: -1.56. For GCGCGCACGAUGCUUCAUUTT against Dcstamp, the z-score was inactive: 0.00291. For GGGAUCUAAAGGCUGAAAATT against Mark4, the z-score was inactive: -0.291. In the case of GGAGUUGGAUAUUCUAAAATT against B3gntl1, the z-score is reported as inactive: -0.64. With GCUAUUAAAGAGGUAGUCATT against Lancl2 the z-score was inactive: -0.479. With GGCUCUGCUCCUUCAAUGUTT against Dnase1l3 the z-score was inactive: -0.798. With GGCAGCAGUUAUUGUGGAUTT against Ly6a the z-score was inactive: 0.693. In the case of “GCACUGUGGGUGUUUUUAGTT against E130309D02Rik”, the z-score is reported as inactive: -0.198. In the case of GGUUAAAAAGGAUUUCAGCTT against Tcp11l2, the z-score is reported as inactive: 0.0471. In the case of GCUAUGUGACCAGAACGAGTT against Tsc2, the z-score is reported as inactive: 0.194. In the case of GGAAGAAAUAGAGUUUUACTT against Ephx2, the z-score is reported as active: 3.42. For GGCAAACUGUCUCUUCAGATT against Pim1, the z-score was inactive: -0.131. For GGAGUCAGUCCAGAUUCUGTT against Tgif1, the z-score was inactive: -1.09. For GCGUAUCAAGUUCUCUAGGTT against Mical1, the z-score was inactive: 1.84. In the case of GGUGGGACUUGAUUUUUCUTT against Lrrfip1, the z-score is reported as inactive: 0.815. In the case of GGGCUAUGUUGUCUCAAAATT against Gsdma2, the z-score is reported as inactive: 0.861. For GGUGAACCACGAGAAGAGUTT against Hk1, the z-score was inactive: -0.0371. With GGAACACUUCAUCAGUCAGTT against Chrnb3 the z-score was inactive: -1.06. With GGUCCAGAGAAGGCAAGCUTT against Elf3 the z-score was active: 5.87. In the case of GGCUGAAGCUCGACUGAAGTT against Abcf3, the z-score is reported as active: 2.35. In the case of CCUUCGAGUACACCUUGCUTT against Adamtsl2, the z-score is reported as inactive: -1.21. In the case of GGAAGAAAAGUAUUACAGCTT against Itgb3bp, the z-score is reported as inactive: -0.34. In the case of GGAGAGGCUUUUCAUUGAUTT against Dnaaf1, the z-score is reported as inactive: 0.819. With GCACUAAACGUGAAGGAGUTT against Npl the z-score was inactive: -0.334. In the case of GCUGUUACCUCCAAGAGUCTT against Cenpx, the z-score is reported as inactive: -1.89. In the case of GGAUUAUUAGCACUGCUAGTT against Oaz2, the z-score is reported as inactive: 0.861. For GGAUGAUUCAGAUGAAGAUTT against Zcchc18, the z-score was inactive: -0.662. With GGAUGUUCUUGCUCAUGUGTT against Fam149b the z-score was inactive: 0.605. With GGCUCCUGGUUCUACAUCCTT against Itpr2 the z-score was active: -2.54. For GGAGAACACUGAGGAAAAGTT against Olfr917, the z-score was inactive: 0.38. With “GGGAUUGGCGGGUUUUGAUTT against 9330175E14Rik” the z-score was inactive: -1.11. For GGCACAGAGAUUGAAGAUCTT against Sry, the z-score was active: 2.04. With GGCUGAAAAACCUUCAGCATT against Sparcl1 the z-score was inactive: 0.507. In the case of GGACUGGUUCAUCCUUGUGTT against G6pc, the z-score is reported as inactive: 0.922. In the case of GGCUCUAACUAUUAUGUGCTT against Psmc4, the z-score is reported as active: -2.9. For GGAAAAGUCCCGUAUGGAGTT against Gcc1, the z-score was active: -3.14. In the case of GCGAUGGAACUGUACGAGATT against Mdp1, the z-score is reported as inactive: 0.244. For GGAGAAGACGGCUAAGCUCTT against Gramd1a, the z-score was inactive: 0.0128. With GCUUGAGCUCAUGGUCACUTT against Olfr1309 the z-score was inactive: 0.572. In the case of GGAGAUCGACAGAGAAGCATT against Pcdh20, the z-score is reported as inactive: -1.13. In the case of “GCGUGCCCAACAUUAUCAUTT against 1190005I06Rik”, the z-score is reported as inactive: -0.314. With GGCUGUUUCCAAAAAGAAGTT against H1f5 the z-score was inactive: -1.14. In the case of “CAUGGACUCUAAGUAUAAUTT against Olfr1372-ps1”, the z-score is reported as inactive: -0.38. In the case of CCUGCAGCUGUAAAACCUGTT against Mt4, the z-score is reported as inactive: 0.902.
